Data taken from article PMC10646281.
Results are given in words; binding and its absence hold for the method and conditions named. Binding seen in cells or lysates may run through a third protein. Some results given as binding are weak or reduced against the parent protein; the word gives no strength. For some assays here: Where a sequence is shown, tags or fusion partners need not be part of it.

Protein sequences, listed by entry. Tags and fused reporters are not part of them. Residues count along the entry.
UniProt P05091, residues 18-517: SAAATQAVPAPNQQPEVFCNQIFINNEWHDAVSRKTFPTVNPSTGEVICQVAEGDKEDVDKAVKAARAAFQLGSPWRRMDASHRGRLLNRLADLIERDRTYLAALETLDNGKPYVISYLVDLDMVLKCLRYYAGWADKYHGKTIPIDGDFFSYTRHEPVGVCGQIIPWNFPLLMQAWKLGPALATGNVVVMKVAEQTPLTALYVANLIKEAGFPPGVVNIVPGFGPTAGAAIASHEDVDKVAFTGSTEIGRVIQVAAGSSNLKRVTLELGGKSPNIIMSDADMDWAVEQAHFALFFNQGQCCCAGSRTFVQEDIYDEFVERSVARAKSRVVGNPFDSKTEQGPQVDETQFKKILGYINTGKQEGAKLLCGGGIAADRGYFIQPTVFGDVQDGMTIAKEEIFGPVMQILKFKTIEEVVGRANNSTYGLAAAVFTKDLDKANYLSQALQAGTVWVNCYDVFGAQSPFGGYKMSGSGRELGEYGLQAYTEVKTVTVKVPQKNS

Columns and labels:
[1] = target: Aldehyde dehydrogenase 2 (ALDH2), endogenous in HUVECs (human (endogenous in HUVECs)) (UniProt P05091); assay: co-IP; endogenous ALDH2 and LIN28B in HUVECs; also HUVECs treated with Ang II (more binding) or with Daidzin (less binding)
Flag-ALDH2 = Flag-ALDH2 (UniProt P05091); assay: co-IP; Flag-ALDH2 co-transfected with HA-LIN28B into HEK293T; cell lysates precipitated with an anti-Flag antibody, followed by western blotting

binding [1]	binding (Flag-ALDH2)	Binder
binds	–	Lin-28 Homolog B (LIN28B), endogenous in HUVECs (protein, UniProt Q6ZN17 1-250) MAEGGASKGGGEEPGKLPEPAEEESQVLRGTGHCKWFNVRMGFGFISMINREGSPLDIPVDVFVHQSKLFMEGFRSLKEGEPVEFTFKKSSKGLESIRVTGPGGSPCLGSERRPKGKTLQKRKPKGDRCYNCGGLDHHAKECSLPPQPKKCHYCQSIMHMVANCPHKNVAQPPASSQGRQEAESQPCTSTLPREVGGGHGCTSPPFPQEARAEISERSGRSPQEASSTKSSIAPEEQSKKGPSVQKRKKT
–	binds	HA-LIN28B (protein, UniProt Q6ZN17 1-250) MAEGGASKGGGEEPGKLPEPAEEESQVLRGTGHCKWFNVRMGFGFISMINREGSPLDIPVDVFVHQSKLFMEGFRSLKEGEPVEFTFKKSSKGLESIRVTGPGGSPCLGSERRPKGKTLQKRKPKGDRCYNCGGLDHHAKECSLPPQPKKCHYCQSIMHMVANCPHKNVAQPPASSQGRQEAESQPCTSTLPREVGGGHGCTSPPFPQEARAEISERSGRSPQEASSTKSSIAPEEQSKKGPSVQKRKKT
